Columns and labels:
[1] = system: human diffuse large cell lymphoma B lymphocytes (Pfeiffer cell); assay: Pfeiffer cell proliferation, Calcein AM staining; assay type: cell-based; settings: read-out: Pfeiffer Proliferation IC50 Nanomoles per Liter (nM)
[2] = system: human diffuse large B-cell lymphoma cells (Karpas 422 cell); assay: Karpas 422 cell proliferation, Calcein AM staining; assay type: cell-based; settings: KARPAS-422, read-out: Karpas422 Proliferation IC50 Nanomoles per Liter (nM)

`CCN(c1cc(-c2ccc(CN3CCOCC3)cc2)cc(C(=O)NCc2c(C)cc(C)[nH]c2=O)c1C)C1CCOCC1` [EPZ-6438, reference compound] gave an IC50 [1] of 7.14 nM and an IC50 [2] of 13.3 nM.

Reference: US12473298B2, “Amide compounds, preparation method therefor, and use thereof in the medical field” (Shanghai Synergy Pharmaceutical Sciences Co., Ltd., priority 2019, dated 2025)
